Measured values from article PMC5864832.
These are yes or no findings as the source states them, for the method shown. Binding seen in cells or lysates may run through a third protein. A yes stands for co-enrichment or nearness to the bait. Other partners may have been found. One block for each binder: values may come before it.

Chains of the proteins cited; added tags and fusions are not shown.
UniProt P50613: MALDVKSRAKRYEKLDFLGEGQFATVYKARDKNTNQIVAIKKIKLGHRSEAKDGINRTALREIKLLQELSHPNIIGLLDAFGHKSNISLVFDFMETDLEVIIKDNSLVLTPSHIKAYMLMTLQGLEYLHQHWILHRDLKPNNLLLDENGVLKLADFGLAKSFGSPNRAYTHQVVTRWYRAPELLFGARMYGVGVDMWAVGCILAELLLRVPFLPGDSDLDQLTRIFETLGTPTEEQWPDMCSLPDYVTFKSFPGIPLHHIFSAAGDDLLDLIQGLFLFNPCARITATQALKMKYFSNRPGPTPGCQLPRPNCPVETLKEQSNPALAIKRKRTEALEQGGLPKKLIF
UniProt P25786: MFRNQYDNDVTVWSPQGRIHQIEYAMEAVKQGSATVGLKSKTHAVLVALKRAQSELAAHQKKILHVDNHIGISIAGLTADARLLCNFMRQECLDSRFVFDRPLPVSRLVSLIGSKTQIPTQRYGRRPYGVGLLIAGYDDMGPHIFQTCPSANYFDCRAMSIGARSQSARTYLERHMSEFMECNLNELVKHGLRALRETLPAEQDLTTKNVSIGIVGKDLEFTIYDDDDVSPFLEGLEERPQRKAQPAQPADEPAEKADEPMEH

What was measured:
[1] = target: cyclin-dependent kinase (CDK) 7 (human) (UniProt P50613); experiment: affinity purification with mass spectrometry + proximity labelling; bait-normalised prey PSM values of AP-MS and of BioID of the same MAC-tagged bait integrated to a relative distance between bait and prey
[2] = target: Proteasome subunit alpha type-1 (human) (UniProt P25786); experiment: proximity labelling; BioID: MAC-tagged bait in stable Flp-In T-REx 293 cells, tetracycline and 50 uM biotin 24 h; lysis buffer 2 (as buffer 1 with 0.1% SDS), sonication, benzonase; biotinylated proteins on Strep-Tactin beads; LC-MS; SAINT and CRAPome filter

binding [1]: binds
B1: ERCC5 (protein, UniProt P28715 1-1186)
chain: MGVQGLWKLLECSGRQVSPEALEGKILAVDISIWLNQALKGVRDRHGNSIENPHLLTLFHRLCKLLFFRIRPIFVFDGDAPLLKKQTLVKRRQRKDLASSDSRKTTEKLLKTFLKRQAIKTAFRSKRDEALPSLTQVRRENDLYVLPPLQEEEKHSSEEEDEKEWQERMNQKQALQEEFFHNPQAIDIESEDFSSLPPEVKHEILTDMKEFTKRRRTLFEAMPEESDDFSQYQLKGLLKKNYLNQHIEHVQKEMNQQHSGHIRRQYEDEGGFLKEVESRRVVSEDTSHYILIKGIQAKTVAEVDSESLPSSSKMHGMSFDVKSSPCEKLKTEKEPDATPPSPRTLLAMQAALLGSSSEEELESENRRQARGRNAPAAVDEGSISPRTLSAIKRALDDDEDVKVCAGDDVQTGGPGAEEMRINSSTENSDEGLKVRDGKGIPFTATLASSSVNSAEEHVASTNEGREPTDSVPKEQMSLVHVGTEAFPISDESMIKDRKDRLPLESAVVRHSDAPGLPNGRELTPASPTCTNSVSKNETHAEVLEQQNELCPYESKFDSSLLSSDDETKCKPNSASEVIGPVSLQETSSIVSVPSEAVDNVENVVSFNAKEHENFLETIQEQQTTESAGQDLISIPKAVEPMEIDSEESESDGSFIEVQSVISDEELQAEFPETSKPPSEQGEEELVGTREGEAPAESESLLRDNSERDDVDGEPQEAEKDAEDSLHEWQDINLEELETLESNLLAQQNSLKAQKQQQERIAATVTGQMFLESQELLRLFGIPYIQAPMEAEAQCAILDLTDQTSGTITDDSDIWLFGARHVYRNFFNKNKFVEYYQYVDFHNQLGLDRNKLINLAYLLGSDYTEGIPTVGCVTAMEILNEFPGHGLEPLLKFSEWWHEAQKNPKIRPNPHDTKVKKKLRTLQLTPGFPNPAVAEAYLKPVVDDSKGSFLWGKPDLDKIREFCQRYFGWNRTKTDESLFPVLKQLDAQQTQLRIDSFFRLAQQEKEDAKRIKSQRLNRAVTCMLRKEKEAAASEIEAVSVAMEKEFELLDKAKGKTQKRGITNTLEESSSLKRKRLSDSKGKNTCGGFLGETCLSESSDGSSSEDAESSSLMNVQRRTAAKEPKTSASDSQNSVKEAPVKNGGATTSSSSDSDDDGGKEKMVLVTARSVFGKKRRKLRRARGRKRKT

binding [2]: binds
B2: MYO1D (protein, UniProt O94832 1-1006)
chain: MAEQESLEFGKADFVLMDTVSMPEFMANLRLRFEKGRIYTFIGEVVVSVNPYKLLNIYGRDTIEQYKGRELYERPPHLFAIADAAYKAMKRRSKDTCIVISGESGAGKTEASKYIMQYIAAITNPSQRAEVERVKNMLLKSNCVLEAFGNAKTNRNDNSSRFGKYMDINFDFKGDPIGGHINNYLLEKSRVIVQQPGERSFHSFYQLLQGGSEQMLRSLHLQKSLSSYNYIHVGAQLKSSINDAAEFRVVADAMKVIGFKPEEIQTVYKILAAILHLGNLKFVVDGDTPLIENGKVVSIIAELLSTKTDMVEKALLYRTVATGRDIIDKQHTEQEASYGRDAFAKAIYERLFCWIVTRINDIIEVKNYDTTIHGKNTVIGVLDIYGFEIFDNNSFEQFCINYCNEKLQQLFIQLVLKQEQEEYQREGIPWKHIDYFNNQIIVDLVEQQHKGIIAILDDACMNVGKVTDEMFLEALNSKLGKHAHFSSRKLCASDKILEFDRDFRIRHYAGDVVYSVIGFIDKNKDTLFQDFKRLMYNSSNPVLKNMWPEGKLSITEVTKRPLTAATLFKNSMIALVDNLASKEPYYVRCIKPNDKKSPQIFDDERCRHQVEYLGLLENVRVRRAGFAFRQTYEKFLHRYKMISEFTWPNHDLPSDKEAVKKLIERCGFQDDVAYGKTKIFIRTPRTLFTLEELRAQMLIRIVLFLQKVWRGTLARMRYKRTKAALTIIRYYRRYKVKSYIHEVARRFHGVKTMRDYGKHVKWPSPPKVLRRFEEALQTIFNRWRASQLIKSIPASDLPQVRAKVAAVEMLKGQRADLGLQRAWEGNYLASKPDTPQTSGTFVPVANELKRKDKYMNVLFSCHVRKVNRFSKVEDRAIFVTDRHLYKMDPTKQYKVMKTIPLYNLTGLSVSNGKDQLVVFHTKDNKDLIVCLFSKQPTHESRIGELVGVLVNHFKSEKRHLQVNVTNPVQCSLHGKKCTVSVETRLNQPQPDFTKNRSGFILSVPGN
